Reference: publication doi:10.1101/144295
Results are given in words; binding and its absence hold for the method and conditions named. Binding seen in cells or lysates may run through a third protein. Some entries that bind do so weakly or less than the wild type.

By UniProt entry, the sequences of proteins in these tests, tags left out.
UniProt Q9NQV7: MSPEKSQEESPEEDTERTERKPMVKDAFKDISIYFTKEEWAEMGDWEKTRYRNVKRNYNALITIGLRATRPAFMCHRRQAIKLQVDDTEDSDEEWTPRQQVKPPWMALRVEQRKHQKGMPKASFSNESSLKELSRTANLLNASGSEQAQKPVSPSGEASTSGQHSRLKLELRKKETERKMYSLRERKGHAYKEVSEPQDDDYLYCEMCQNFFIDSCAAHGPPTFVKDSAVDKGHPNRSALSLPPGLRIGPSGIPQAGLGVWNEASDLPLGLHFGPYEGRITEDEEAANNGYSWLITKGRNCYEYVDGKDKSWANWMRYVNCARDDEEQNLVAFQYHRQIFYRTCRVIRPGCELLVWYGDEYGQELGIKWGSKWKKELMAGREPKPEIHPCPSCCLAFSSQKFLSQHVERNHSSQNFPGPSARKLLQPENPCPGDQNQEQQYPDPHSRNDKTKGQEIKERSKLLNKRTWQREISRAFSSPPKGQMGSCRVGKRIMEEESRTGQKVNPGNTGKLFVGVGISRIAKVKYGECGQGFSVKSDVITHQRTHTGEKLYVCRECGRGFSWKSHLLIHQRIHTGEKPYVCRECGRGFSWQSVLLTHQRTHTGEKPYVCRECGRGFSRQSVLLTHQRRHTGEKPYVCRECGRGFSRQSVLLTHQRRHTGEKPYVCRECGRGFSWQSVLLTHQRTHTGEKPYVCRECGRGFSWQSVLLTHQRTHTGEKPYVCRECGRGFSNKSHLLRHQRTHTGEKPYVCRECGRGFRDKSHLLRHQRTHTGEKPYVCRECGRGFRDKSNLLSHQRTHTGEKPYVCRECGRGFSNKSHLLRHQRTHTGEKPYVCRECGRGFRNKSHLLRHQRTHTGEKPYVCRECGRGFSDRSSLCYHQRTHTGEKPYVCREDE

Target: full-length human PRDM9 (B allele), C-terminally tagged with HA or V5 (human) (UniProt Q9NQV7)
Experiment: co-IP

binding: binds
Substance: full-length human PRDM9 (B allele), C-terminally tagged with HA or V5 (from UniProt Q9NQV7 1-894)
